PubChem BioAssay AID1159578 – Peter MacCallum Cancer Centre – 2015

- Screen: 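Genome-wide hunt for genes controlling movement of lymphatic endothelial cells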 (primary screen)
- Cells: human lymphatic endothelial cells
- Reagent: siRNA pool against human genes, 40 nM
- Timing: 48 h after transfection
- Measured: 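Cells stained with dye and imaged after a scratch; covered wound area and nuclei counted, duplicates averaged, migration set against mock wells and turned into a robust z-score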
- Direction: migration robust z-score: higher = faster migration into the scratch; migration relative to mock: higher = more scratch area covered than mock; nuclei per well: higher = more cells in the well
- Hit rule: 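Pools averaging fewer than 3300 nuclei are never called; remaining pools count as changed when migration robust z lies outside -2 to 2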
- Calls: active = migration changed; inactive = no migration change, or too few cells
Shown is one part, drawn at random, of about 18,000 deposited reagents. In the full data, about 1,030 (5.7%) were called active. 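Inactive calls also include pools with fewer than 3300 nuclei, whose migration was not assessed.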 Raw values vary from plate to plate and are shown uncorrected. Reagent sequences are not shown.

| target gene | migration robust z-score | migration class with cell-count check | migration relative to mock | nuclei per well, duplicate mean | activity call |
| --- | --- | --- | --- | --- | --- |
| HMGCS2 | 0.41 | migration z between -2 and 2; enough cells | 0.99 | 7516 | inactive |
| PIGP | 0.76 | migration z between -2 and 2; enough cells | 1.08 | 6404 | inactive |
| PNLIPRP1 | -0.71 | migration z between -2 and 2; enough cells | 0.7 | 6740 | inactive |
| AMIGO1 | 0.15 | migration z between -2 and 2; enough cells | 0.92 | 6226 | inactive |
| REXO4 | -0.03 | migration z between -2 and 2; enough cells | 0.8 | 4512 | inactive |
| YBX1 | 0.16 | migration z between -2 and 2; enough cells | 0.84 | 4999 | inactive |
| LRRK1 | -0.83 | migration z between -2 and 2; enough cells | 0.64 | 4972 | inactive |
| XPOT | 1.04 | migration z between -2 and 2; enough cells | 1.15 | 5692 | inactive |
| ARMH4 | -1.58 | migration z between -2 and 2; enough cells | 0.47 | 3539 | inactive |
| UQCC1 | -0.43 | migration z between -2 and 2; enough cells | 0.78 | 5688 | inactive |
| PAG1 | 1.54 | migration z between -2 and 2; enough cells | 1.29 | 4253 | inactive |
| THOC5 | -0.74 | migration z between -2 and 2; enough cells | 0.7 | 5735 | inactive |
| NR1H4 | -0.05 | migration z between -2 and 2; enough cells | 0.8 | 4316 | inactive |
| OR4K13 | 0.06 | migration z between -2 and 2; enough cells | 0.9 | 5800 | inactive |
| ZNF219 | 0.6 | migration z between -2 and 2; enough cells | 1.04 | 6080 | inactive |
| ADSS1 | 1.66 | migration z between -2 and 2; enough cells | 1.12 | 5228 | inactive |
| NKX2-5 | -0.8 | migration z between -2 and 2; enough cells | 0.65 | 5912 | inactive |
| MT4 | 0.58 | migration z between -2 and 2; enough cells | 1.04 | 5636 | inactive |
| EN1 | 1.34 | migration z between -2 and 2; enough cells | 1.06 | 5848 | inactive |
| NGDN | 0.12 | migration z between -2 and 2; enough cells | 0.91 | 6092 | inactive |
| FLRT1 | -0.32 | migration z between -2 and 2; enough cells | 0.8 | 5036 | inactive |
| NDUFB11 | 0.9 | migration z between -2 and 2; enough cells | 1.12 | 6394 | inactive |
| INSL4 | 1.36 | migration z between -2 and 2; enough cells | 1.24 | 6441 | inactive |
| FBXL3 | -1.14 | migration z between -2 and 2; enough cells | 0.59 | 5494 | inactive |
| SLC52A2 | -1.12 | migration z between -2 and 2; enough cells | 0.6 | 6103 | inactive |
| NDUFB4 | -2.02 | migration z below -2; enough cells | 0.42 | 3566 | active |
| DYNAP | -2.15 | migration z below -2; enough cells | 0.32 | 5618 | active |
| CEBPB | -3.45 | under 3300 nuclei; migration not judged | 0.14 | 3144 | inactive |
| FKBP10 | 0.73 | migration z between -2 and 2; enough cells | 0.94 | 5106 | inactive |
| H2BC15 | -1.34 | migration z between -2 and 2; enough cells | 0.53 | 4221 | inactive |
| SCML4 | 0.32 | migration z between -2 and 2; enough cells | 0.97 | 4372 | inactive |
| CCL18 | 0.35 | migration z between -2 and 2; enough cells | 0.98 | 5796 | inactive |
| MATR3 | 0.96 | migration z between -2 and 2; enough cells | 1.13 | 6340 | inactive |
| SLC6A14 | 0.13 | migration z between -2 and 2; enough cells | 0.83 | 5178 | inactive |
| DUSP11 | 0.16 | migration z between -2 and 2; enough cells | 0.84 | 5308 | inactive |
| RNF17 | 1.32 | migration z between -2 and 2; enough cells | 1.06 | 6962 | inactive |
| SH3TC1 | -0.04 | migration z between -2 and 2; enough cells | 0.88 | 5060 | inactive |
| SLC25A22 | 1.04 | migration z between -2 and 2; enough cells | 1 | 6478 | inactive |

4 of these entries in another layout.
YBX1
- migration robust z-score: 0.16
- migration class with cell-count check: migration z between -2 and 2; enough cells
- migration relative to mock: 0.84
- nuclei per well, duplicate mean: 4999
- activity call: inactive

LRRK1
- migration robust z-score: -0.83
- migration class with cell-count check: migration z between -2 and 2; enough cells
- migration relative to mock: 0.64
- nuclei per well, duplicate mean: 4972
- activity call: inactive

XPOT
- migration robust z-score: 1.04
- migration class with cell-count check: migration z between -2 and 2; enough cells
- migration relative to mock: 1.15
- nuclei per well, duplicate mean: 5692
- activity call: inactive

ARMH4
- migration robust z-score: -1.58
- migration class with cell-count check: migration z between -2 and 2; enough cells
- migration relative to mock: 0.47
- nuclei per well, duplicate mean: 3539
- activity call: inactive

Additional entries follow.
| target gene | migration robust z-score | migration class with cell-count check | migration relative to mock | nuclei per well, duplicate mean | activity call |
| --- | --- | --- | --- | --- | --- |
| DNAI7 | -1.14 | migration z between -2 and 2; enough cells | 0.6 | 5489 | inactive |
| POU5F1 | 0 | migration z between -2 and 2; enough cells | 0.8 | 4896 | inactive |
| PAFAH2 | -1.34 | migration z between -2 and 2; enough cells | 0.54 | 6382 | inactive |
| NUTM2G | -0.6 | migration z between -2 and 2; enough cells | 0.73 | 5634 | inactive |
| MSLN | -0.24 | migration z between -2 and 2; enough cells | 0.82 | 4817 | inactive |
| CYP4F3 | -0.47 | migration z between -2 and 2; enough cells | 0.72 | 5522 | inactive |
| EIF3D | 0.96 | migration z between -2 and 2; enough cells | 0.99 | 6043 | inactive |
| TRAFD1 | -1.27 | migration z between -2 and 2; enough cells | 0.56 | 6173 | inactive |
| LY9 | -0.23 | migration z between -2 and 2; enough cells | 0.83 | 5496 | inactive |
| ZNF337 | 1.62 | migration z between -2 and 2; enough cells | 1.31 | 7194 | inactive |
| SPAG7 | -1.26 | migration z between -2 and 2; enough cells | 0.56 | 5609 | inactive |
| L3MBTL1 | -0.2 | migration z between -2 and 2; enough cells | 0.83 | 5686 | inactive |
| PLEKHG4 | -0.46 | migration z between -2 and 2; enough cells | 0.77 | 5428 | inactive |
| VSIG8 | 2.17 | migration z above 2; enough cells | 1.45 | 6190 | active |
| SERPINA3 | 0 | migration z between -2 and 2; enough cells | 0.8 | 5490 | inactive |
| DNAJC19 | -0.26 | migration z between -2 and 2; enough cells | 0.82 | 4833 | inactive |
| NGLY1 | 0.36 | migration z between -2 and 2; enough cells | 0.88 | 4378 | inactive |
| DORIP1 | 0.1 | migration z between -2 and 2; enough cells | 0.92 | 5796 | inactive |
| FABP9 | -1.06 | migration z between -2 and 2; enough cells | 0.62 | 3724 | inactive |
| MRPL57 | -0.69 | migration z between -2 and 2; enough cells | 0.71 | 5972 | inactive |
| ANO10 | 0.46 | migration z between -2 and 2; enough cells | 1 | 6238 | inactive |
| ZRSR2 | -0.6 | migration z between -2 and 2; enough cells | 0.73 | 6218 | inactive |
| DNMBP | 0.96 | migration z between -2 and 2; enough cells | 1.14 | 5958 | inactive |
| IL1R2 | 1.38 | migration z between -2 and 2; enough cells | 1.07 | 6350 | inactive |
| NFAT5 | -0.13 | under 3300 nuclei; migration not judged | 0.78 | 3227 | inactive |
| MCTP2 | -0.2 | migration z between -2 and 2; enough cells | 0.84 | 4840 | inactive |
| GAB4 | -0.67 | migration z between -2 and 2; enough cells | 0.71 | 7170 | inactive |
| SMARCA4 | -0.78 | migration z between -2 and 2; enough cells | 0.66 | 4294 | inactive |
| CTBP1 | -1.45 | migration z between -2 and 2; enough cells | 0.52 | 4887 | inactive |
| OR9I1 | 0.62 | migration z between -2 and 2; enough cells | 1.04 | 6080 | inactive |
| PXDNL | 0.36 | migration z between -2 and 2; enough cells | 0.88 | 5060 | inactive |
| LRP8 | 0.38 | migration z between -2 and 2; enough cells | 0.88 | 4466 | inactive |
| MYRF | -0.25 | migration z between -2 and 2; enough cells | 0.82 | 6366 | inactive |
| CEACAM18 | 0.05 | migration z between -2 and 2; enough cells | 0.9 | 7100 | inactive |
| EN2 | -2.21 | migration z below -2; enough cells | 0.38 | 5618 | active |
